Test results reported in article PMC5780496.
Positions count from the first letter of the chain named. Names may count otherwise. No constants are given. Whether binding was seen depends on the method and setting. Binding seen in cells or lysates may run through a third protein. Some entries that bind do so weakly or less than the wild type. For some assays here: Tags and fused reporters may be left off the sequences shown.

Legend:
Experiment in all cases: co-IP; MCF12A cells 20 hours post-transfection, lysed in 50 mM Tris-HCl pH 7.5, 150 mM NaCl, 1% Triton-X100, 0.27 M sucrose; anti-HA or anti-Flag affinity gel, 2 hours at 4 °C; immunoblot; in some samples active PAK1(K141A) co-expressed
[1] = target: HACE1(S385A), phospho-resistant mutant, HA- or myc-tagged (UniProt Q8IYU2)
[2] = target: HACE1(S385E), phospho-mimetic mutant (UniProt Q8IYU2)
[3] = target: T1, Ser-385-phosphorylated form of HACE1, Q8IYU2; conditions: remark: other sources report otherwise
T1 chain: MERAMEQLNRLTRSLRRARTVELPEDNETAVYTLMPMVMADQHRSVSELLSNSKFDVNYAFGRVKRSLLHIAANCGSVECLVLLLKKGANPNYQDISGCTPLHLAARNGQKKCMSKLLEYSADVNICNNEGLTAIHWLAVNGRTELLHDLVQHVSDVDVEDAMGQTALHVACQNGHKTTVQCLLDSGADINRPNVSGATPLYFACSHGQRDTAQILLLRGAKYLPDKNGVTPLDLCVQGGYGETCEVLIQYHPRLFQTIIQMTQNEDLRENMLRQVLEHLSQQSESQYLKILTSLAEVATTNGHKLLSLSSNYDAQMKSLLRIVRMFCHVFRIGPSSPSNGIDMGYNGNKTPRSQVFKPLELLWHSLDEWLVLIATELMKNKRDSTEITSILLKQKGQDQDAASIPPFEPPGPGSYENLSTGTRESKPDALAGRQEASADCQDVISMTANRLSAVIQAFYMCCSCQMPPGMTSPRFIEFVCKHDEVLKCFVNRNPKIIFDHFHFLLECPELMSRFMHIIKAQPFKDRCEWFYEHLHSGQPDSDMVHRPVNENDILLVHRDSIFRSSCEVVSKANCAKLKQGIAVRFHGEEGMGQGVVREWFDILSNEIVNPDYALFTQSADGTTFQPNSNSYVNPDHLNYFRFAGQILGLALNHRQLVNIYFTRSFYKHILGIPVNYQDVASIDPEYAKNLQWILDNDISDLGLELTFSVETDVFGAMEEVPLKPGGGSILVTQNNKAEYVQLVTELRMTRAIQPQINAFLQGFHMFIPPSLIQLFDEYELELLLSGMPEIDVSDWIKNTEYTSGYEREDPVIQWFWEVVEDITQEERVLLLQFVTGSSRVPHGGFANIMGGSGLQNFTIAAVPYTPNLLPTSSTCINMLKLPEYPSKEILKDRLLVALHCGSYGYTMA

[4] = target: T2, HACE1(WT), full length (FL), HA- or myc-tagged, Q8IYU2; conditions: remark: other sources report otherwise
T2 chain: T1 chain

[5] = target: T3, HACE1(WT), full length (FL), HA- or myc-tagged (UniProt Q8IYU2)
T3 sequence: T1 chain

B1: HACE1(S385A), phospho-resistant mutant, HA- or myc-tagged (enzyme, UniProt Q8IYU2 1-909)
chain: T1 chain with S385A
- binding [1]: binds

B2: HACE1(S385E), phospho-mimetic mutant (enzyme, UniProt Q8IYU2 1-909)
chain: T1 chain with S385E
- binding [2]: binds

B3: Ser-385-phosphorylated form of HACE1, Q8IYU2 1-909 (enzyme)
chain: T1 chain
modifications: here or on the partner: phosphoserine at 385; phosphoserine at 385
- binding [3]: binds

B4: HACE1(WT), full length (FL), HA- or myc-tagged, Q8IYU2 1-909 (enzyme)
chain: T1 chain
- binding [4]: binds

B5: HACE1 HECT domain alone (domain or fragment, UniProt Q8IYU2 574-909)
chain: NCAKLKQGIAVRFHGEEGMGQGVVREWFDILSNEIVNPDYALFTQSADGTTFQPNSNSYVNPDHLNYFRFAGQILGLALNHRQLVNIYFTRSFYKHILGIPVNYQDVASIDPEYAKNLQWILDNDISDLGLELTFSVETDVFGAMEEVPLKPGGGSILVTQNNKAEYVQLVTELRMTRAIQPQINAFLQGFHMFIPPSLIQLFDEYELELLLSGMPEIDVSDWIKNTEYTSGYEREDPVIQWFWEVVEDITQEERVLLLQFVTGSSRVPHGGFANIMGGSGLQNFTIAAVPYTPNLLPTSSTCINMLKLPEYPSKEILKDRLLVALHCGSYGYTMA
- binding [5]: binds weakly
